No constants are given. Whether binding was seen depends on the method and setting. For some assays here: In cells and extracts the contact can be indirect. Some results given as binding are weak or reduced against the parent protein; the word gives no strength.

By UniProt entry, the sequences of proteins in these tests, tags left out.
UniProt P45973: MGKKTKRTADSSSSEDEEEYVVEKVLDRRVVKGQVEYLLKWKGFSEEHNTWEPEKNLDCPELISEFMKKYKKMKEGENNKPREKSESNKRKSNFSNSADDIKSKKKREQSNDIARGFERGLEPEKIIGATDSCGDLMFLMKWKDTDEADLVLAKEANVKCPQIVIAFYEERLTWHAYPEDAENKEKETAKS
UniProt P51531: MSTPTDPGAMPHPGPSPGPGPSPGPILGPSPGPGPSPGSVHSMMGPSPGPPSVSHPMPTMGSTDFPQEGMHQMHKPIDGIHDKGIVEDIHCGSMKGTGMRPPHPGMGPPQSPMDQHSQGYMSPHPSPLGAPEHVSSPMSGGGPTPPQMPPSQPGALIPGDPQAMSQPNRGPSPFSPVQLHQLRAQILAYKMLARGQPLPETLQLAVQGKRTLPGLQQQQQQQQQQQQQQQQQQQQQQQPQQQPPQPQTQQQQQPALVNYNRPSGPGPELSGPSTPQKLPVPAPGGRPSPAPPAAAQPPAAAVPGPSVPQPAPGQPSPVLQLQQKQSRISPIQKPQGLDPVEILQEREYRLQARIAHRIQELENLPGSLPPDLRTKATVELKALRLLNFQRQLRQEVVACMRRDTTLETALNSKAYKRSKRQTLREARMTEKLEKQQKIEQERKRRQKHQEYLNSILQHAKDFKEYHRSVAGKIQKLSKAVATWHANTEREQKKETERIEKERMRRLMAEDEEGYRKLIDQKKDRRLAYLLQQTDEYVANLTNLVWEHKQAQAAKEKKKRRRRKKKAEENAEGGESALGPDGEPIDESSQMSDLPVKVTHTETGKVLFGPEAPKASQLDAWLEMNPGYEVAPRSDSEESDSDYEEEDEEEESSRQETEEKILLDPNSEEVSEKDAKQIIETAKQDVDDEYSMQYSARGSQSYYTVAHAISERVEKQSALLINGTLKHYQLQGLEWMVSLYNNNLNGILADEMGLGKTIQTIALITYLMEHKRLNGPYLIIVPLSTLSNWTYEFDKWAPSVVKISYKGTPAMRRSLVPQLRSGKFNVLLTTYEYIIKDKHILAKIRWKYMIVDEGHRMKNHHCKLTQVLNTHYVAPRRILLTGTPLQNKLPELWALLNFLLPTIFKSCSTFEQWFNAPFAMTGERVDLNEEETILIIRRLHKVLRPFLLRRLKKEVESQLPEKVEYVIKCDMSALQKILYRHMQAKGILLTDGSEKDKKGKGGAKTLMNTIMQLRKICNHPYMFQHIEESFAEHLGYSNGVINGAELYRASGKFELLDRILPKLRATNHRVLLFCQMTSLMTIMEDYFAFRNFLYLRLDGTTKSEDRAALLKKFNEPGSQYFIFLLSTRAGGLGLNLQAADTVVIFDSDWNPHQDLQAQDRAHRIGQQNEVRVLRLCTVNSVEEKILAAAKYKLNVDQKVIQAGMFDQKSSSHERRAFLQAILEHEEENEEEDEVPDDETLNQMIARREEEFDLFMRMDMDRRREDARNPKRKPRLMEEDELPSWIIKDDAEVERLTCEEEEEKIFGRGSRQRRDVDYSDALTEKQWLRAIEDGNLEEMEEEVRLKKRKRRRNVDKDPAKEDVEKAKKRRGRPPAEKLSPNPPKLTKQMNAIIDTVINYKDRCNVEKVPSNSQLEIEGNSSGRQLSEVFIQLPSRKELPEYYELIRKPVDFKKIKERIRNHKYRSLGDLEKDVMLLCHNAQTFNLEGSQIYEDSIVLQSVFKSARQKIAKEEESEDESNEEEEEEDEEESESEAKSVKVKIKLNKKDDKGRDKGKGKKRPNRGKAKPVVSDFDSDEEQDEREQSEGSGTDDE
UniProt P51532: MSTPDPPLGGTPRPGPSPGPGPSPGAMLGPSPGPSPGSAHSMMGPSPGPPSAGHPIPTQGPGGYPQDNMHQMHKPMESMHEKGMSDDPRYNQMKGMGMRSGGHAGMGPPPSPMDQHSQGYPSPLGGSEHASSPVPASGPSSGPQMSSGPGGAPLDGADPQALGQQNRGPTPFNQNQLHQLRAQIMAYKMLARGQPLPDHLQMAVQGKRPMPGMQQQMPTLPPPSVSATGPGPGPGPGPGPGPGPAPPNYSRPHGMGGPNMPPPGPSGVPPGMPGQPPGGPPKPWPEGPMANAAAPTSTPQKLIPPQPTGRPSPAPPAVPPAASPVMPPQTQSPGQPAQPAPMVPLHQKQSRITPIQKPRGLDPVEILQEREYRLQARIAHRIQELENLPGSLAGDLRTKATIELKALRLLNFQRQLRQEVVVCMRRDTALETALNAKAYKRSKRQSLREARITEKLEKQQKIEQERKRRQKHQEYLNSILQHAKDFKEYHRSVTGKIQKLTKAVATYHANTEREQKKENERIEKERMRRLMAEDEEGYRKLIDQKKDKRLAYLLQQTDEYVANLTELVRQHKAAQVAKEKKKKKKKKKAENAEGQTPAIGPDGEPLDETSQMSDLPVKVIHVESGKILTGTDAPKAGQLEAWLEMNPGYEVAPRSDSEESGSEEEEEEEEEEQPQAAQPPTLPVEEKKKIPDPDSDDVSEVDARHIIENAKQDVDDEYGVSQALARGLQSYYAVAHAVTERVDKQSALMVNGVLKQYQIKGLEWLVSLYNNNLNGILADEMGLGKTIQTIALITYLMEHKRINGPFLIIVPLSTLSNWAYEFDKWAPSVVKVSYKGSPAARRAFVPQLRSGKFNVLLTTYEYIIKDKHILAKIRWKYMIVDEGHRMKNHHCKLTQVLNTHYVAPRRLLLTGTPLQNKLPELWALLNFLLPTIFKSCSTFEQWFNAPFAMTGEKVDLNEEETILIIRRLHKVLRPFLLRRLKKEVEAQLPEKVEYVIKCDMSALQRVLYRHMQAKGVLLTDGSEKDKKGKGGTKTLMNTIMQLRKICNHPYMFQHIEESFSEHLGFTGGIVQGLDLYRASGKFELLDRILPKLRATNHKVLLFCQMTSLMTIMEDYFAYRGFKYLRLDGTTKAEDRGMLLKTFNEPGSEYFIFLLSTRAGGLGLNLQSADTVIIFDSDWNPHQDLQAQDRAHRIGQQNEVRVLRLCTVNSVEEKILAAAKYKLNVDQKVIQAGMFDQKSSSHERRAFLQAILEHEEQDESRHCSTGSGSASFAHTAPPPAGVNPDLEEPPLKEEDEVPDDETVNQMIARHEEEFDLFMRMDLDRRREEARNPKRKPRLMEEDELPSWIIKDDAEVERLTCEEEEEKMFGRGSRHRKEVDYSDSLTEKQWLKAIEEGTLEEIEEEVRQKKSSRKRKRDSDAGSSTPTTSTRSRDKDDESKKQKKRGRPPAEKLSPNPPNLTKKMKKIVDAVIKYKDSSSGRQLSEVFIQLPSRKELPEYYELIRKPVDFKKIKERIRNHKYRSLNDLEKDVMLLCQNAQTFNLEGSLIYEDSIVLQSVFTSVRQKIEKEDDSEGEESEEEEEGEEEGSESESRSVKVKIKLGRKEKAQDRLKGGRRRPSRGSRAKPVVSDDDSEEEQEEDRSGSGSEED

From paper PMC2782133 come the findings set out here.

The target in assay [1] is HP1α (endogenous, HeLa) (human (endogenous in HeLa)) (UniProt P45973). Description: co-IP; from HeLa total extract; pre-immune serum as control.
Another assay concerns the target GST-HP1α (human) (UniProt P45973). Description: pull-down; GST fusion proteins bound to agarose beads incubated with purified histones, recombinant B10-tagged H3 constructs or purified Brg1-flag; ELB buffer (50mM HEPES pH 7, 250mM NaCl, 1mM EDTA, 0.1% NP40); elution with 20mM glutathione; western blot (anti-H3, anti-B10 or anti-Brg1); both purified.

Turning to “Brm (endogenous, HeLa) (from UniProt P51531 1-1590) (enzyme)”, in assay [1], the binding entry is listed as “binds”.
Take “recombinant flag-tagged full length Brg1 (from UniProt P51532 1-1647) (enzyme)”: the binding result with GST-HP1α (human) was “binds”.
